PubChem BioAssay AID276 (DTP/NCI, 2004)
The list is a part of this screen's results and no random one: it gathers tests that were run many times, whatever their T/C, doses with no T/C, and many T/C values between a quarter and a half above the control. Other doses and runs of a compound stand elsewhere. T/C is the treated group as % of the vehicle group. Some doses have a count of surviving animals in place of a T/C: the source holds a T/C of zero for them, seemingly a mark for toxic or unscored doses. Some survivor counts are full or nearly so, which does not show that the dose was tolerated: the source hardly ever lists a survival T/C far under the control, and the zero likely stands for such cases as well. Counts of survivors are from the toxicity check (mostly the fifth day) where no day follows; animals may have died later. Schedule codes are those of the source, read here as Q, the interval in days (D) or hours (H), X, the number of doses. Some entries were tested several times; their values stand side by side, smallest first. Where survival is the endpoint, the PubChem record calls one and a half times the control and up active, and a quarter to a half above the control has no call in these data; cut-offs in other NCI protocols can differ. Signs of the kind (2×) count equal records among those shown. Some T/C values carry the count of animals alive at the toxicity check (mostly the fifth day); without a count, all were alive then.

System: B6C3F1 mice, Lewis lung carcinoma iv, survival T/C
Experiment: NCI In Vivo Anticancer Drug Screen. Data for tumor model Lewis Lung Carcinoma (intravenous) in B6C3F1 mice
Settings: T/C endpoint: median survival time, higher T/C = longer survival
In short: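 Tumors were transplanted into mice, which were then dosed with compound or vehicle. Survival was recorded in each group, and the treated figure was divided by the control figure.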

[1] = dose: 25.0 mg/kg/injection, schedule: Q01DX009 (ip), vehicle: distilled water + Tween-80
[2] = dose: 50.0 mg/kg/injection, schedule: Q01DX009 (ip), vehicle: distilled water + Tween-80
[3] = dose: 100.0 mg/kg/injection, schedule: Q01DX009 (ip), vehicle: saline
[4] = dose: 200.0 mg/kg/injection, schedule: Q01DX009 (ip), vehicle: saline
[5] = dose: 25.0 mg/kg/injection, schedule: Q01DX009 (ip), vehicle: Klucel (hydroxypropylcellulose) (HPC)
[6] = dose: 50.0 mg/kg/injection, schedule: Q01DX009 (ip), vehicle: Klucel (hydroxypropylcellulose) (HPC)
[7] = dose: 100.0 mg/kg/injection, schedule: Q01DX009 (ip), vehicle: Klucel (hydroxypropylcellulose) (HPC)
[8] = dose: 200.0 mg/kg/injection, schedule: Q01DX009 (ip), vehicle: Klucel (hydroxypropylcellulose) (HPC)
[9] = dose: 400.0 mg/kg/injection, schedule: Q01DX009 (ip), vehicle: distilled water + Tween-80
[10] = dose: 50.0 mg/kg/injection, schedule: Q01DX009 (ip), vehicle: saline
[11] = dose: 400.0 mg/kg/injection, schedule: Q01DX009 (ip), vehicle: saline with Tween-80
[12] = dose: 12.5 mg/kg/injection, schedule: Q01DX009 (ip), vehicle: saline
[13] = dose: 25.0 mg/kg/injection, schedule: Q01DX009 (ip), vehicle: saline
[14] = dose: 12.5 mg/kg/injection, schedule: Q01DX009 (ip), vehicle: Klucel (hydroxypropylcellulose) (HPC)
[15] = dose: 0.5 mg/kg/injection, schedule: Q01DX009 (ip), vehicle: saline
[16] = dose: 2.0 mg/kg/injection, schedule: Q01DX009 (ip), vehicle: saline

Compound: COc1ccc2c(c1)CCn1c(C)c(COC(=O)NC(C)C)c(COC(=O)NC(C)C)c1-2
- survivor count [1]: 10 of 10
- survivor count [2]: 9 of 10

Compound: CN=C(N)N/N=C(\C)c1ccc2c(c1)Cc1cc(/C(C)=N/NC(N)=NC)ccc1-2
- survivor count (dose: 6.0 mg/kg/injection, schedule: Q01DX009 (ip), vehicle: saline with Tween-80): 10 of 10
- survivor count (dose: 12.0 mg/kg/injection, schedule: Q01DX009 (ip), vehicle: saline with Tween-80): 2 of 7

Compound: N=C1CCCS1
- T/C [3]: 130 % of control
- survivor count [4]: 0 of 10
- survivor count (dose: 400.0 mg/kg/injection, schedule: Q01DX009 (ip), vehicle: saline): 0 of 10

Compound: C=C(OP(=O)(OC)OC)Sc1ccccc1C
- survivor count (dose: 1.0 mg/kg/injection, schedule: Q01DX009 (ip), vehicle: Klucel (hydroxypropylcellulose) (HPC)): 0 of 10
- survivor count (dose: 1.5 mg/kg/injection, schedule: Q01DX009 (ip), vehicle: Klucel (hydroxypropylcellulose) (HPC)): 6 of 10
- survivor count (dose: 3.0 mg/kg/injection, schedule: Q01DX009 (ip), vehicle: Klucel (hydroxypropylcellulose) (HPC)): 0 of 10
- survivor count (dose: 6.0 mg/kg/injection, schedule: Q01DX009 (ip), vehicle: Klucel (hydroxypropylcellulose) (HPC)): 0 of 10
- survivor count (dose: 12.0 mg/kg/injection, schedule: Q01DX009 (ip), vehicle: Klucel (hydroxypropylcellulose) (HPC)): 0 of 10
- survivor count [5]: 0 of 10
- survivor count [6]: 0 of 10
- survivor count [7]: 0 of 10
- survivor count [8]: 0 of 10

Compound: NC(=O)c1c[se]c(C2OC(CO)C(O)C2O)n1 (stereo not drawn)
- survivor count (dose: 6.0 mg/kg/injection, schedule: Q01DX009 (ip), vehicle: water): 10 of 10
- survivor count (dose: 9.0 mg/kg/injection, schedule: Q01DX009 (ip), vehicle: water): 10 of 10
- survivor count (dose: 20.0 mg/kg/injection, schedule: Q01DX009 (ip), vehicle: water): 10 of 10
- survivor count (dose: 200.0 mg/kg/injection, schedule: Q01DX009 (ip), vehicle: water): 10 of 10

Compound: CCOC(=O)c1ccc(NN=NCCF)cc1
- T/C [1]: 137 % of control
- T/C [2]: 137 % of control (2×)
- T/C (dose: 100.0 mg/kg/injection, schedule: Q01DX009 (ip), vehicle: distilled water + Tween-80): 125 % of control
- T/C (dose: 200.0 mg/kg/injection, schedule: Q01DX009 (ip), vehicle: distilled water + Tween-80): 137 % of control
- survivor count (dose: 200.0 mg/kg/injection, schedule: Q01DX009 (ip), vehicle: distilled water + alcohol): 10 of 10
- survivor count [9]: 10 of 10
- survivor count (dose: 400.0 mg/kg/injection, schedule: Q01DX009 (ip), vehicle: distilled water + alcohol): 6 of 10

Compound: CN(C)c1ccc2c(NCCCCCCNc3ccnc4cc(N(C)C)ccc34)ccnc2c1
- survivor count (dose: 50.0 mg/kg/injection, schedule: Q01DX009 (ip), vehicle: distilled water + Tween-80 + alcohol): 6 of 10

Compound: NC(=S)N/N=C\c1ncccc1OCc1cccc(N)c1
- survivor count [9]: 10 of 10

Compound: Cc1c2cc[n+](CCN3CCCCC3)cc2c(C)c2c1[nH]c1ccc(O)cc12
- survivor count [10]: 9 of 10

Compound: CC(C)[C@](O)(C(=O)OCC1=CCN2CC[C@@H](O)[C@@H]12)[C@H](C)O
- survivor count (dose: 800.0 mg/kg/injection, schedule: Q01DX009 (ip), vehicle: water): 3 of 10

Compound: C=C(C)/C([O-])=N/[N+](C)(C)CC(O)CCCCCCCCCCCC (stereo not drawn)
- survivor count (dose: 400.0 mg/kg/injection, schedule: Q01DX001 (ip), vehicle: saline): 2 of 10
- survivor count (dose: 800.0 mg/kg/injection, schedule: Q01DX001 (ip), vehicle: saline): 0 of 10

Compound: CN(C)/N=N/c1nc[nH]c1C(N)=O
- survivor count [5]: 9 of 10
- survivor count [6]: 10 of 10
- survivor count [7]: 7 of 10

Compound: CCOC(=O)c1[nH]c2cccc3c2c1CC(Br)C3=O (stereo not drawn)
- survivor count (dose: 100.0 mg/kg/injection, schedule: Q01DX009 (ip), vehicle: saline with Tween-80): 3 of 10
- survivor count (dose: 200.0 mg/kg/injection, schedule: Q01DX009 (ip), vehicle: saline with Tween-80): 0 of 10
- survivor count [11]: 0 of 10

Compound: CC1(C)CC(=O)C(CSC(=O)c2ccccc2)C(=O)C1
- survivor count [7]: 2 of 10

Compound: Nc1ccc(Cn2ccc3c4c(N)nc(N)nc4ccc32)cc1
- survivor count (dose: 20.0 mg/kg/injection, schedule: Q01DX009 (ip), vehicle: saline with Tween-80): 10 of 10
- survivor count (dose: 40.0 mg/kg/injection, schedule: Q01DX009 (ip), vehicle: saline with Tween-80): 0 of 10

Compound: Cc1cc(NCCCN(C)C)c2ccc3c(ccc4c(NCCCN(C)C)cc(C)nc43)c2n1
- survivor count (dose: 6.25 mg/kg/injection, schedule: Q01DX009 (ip), vehicle: saline): 7 of 10
- survivor count [12]: 0 of 10
- survivor count [13]: 0 of 10
- survivor count [10]: 0 of 10
- survivor count [3]: 0 of 10

Compound: CC(=O)OCC1OC([S-])C(OC(C)=O)C(OC(C)=O)C1OC(C)=O.CC[PH+](CC)CC.CC[PH+](CC)CC.[Au].[Au] (stereo not drawn)
- survivor count (dose: 20.0 mg/kg/injection, schedule: Q01DX009 (ip), vehicle: Klucel (hydroxypropylcellulose) (HPC)): 0 of 10

Compound: C/C(=N\N=C(/[Se])N1CC2CCC(CC2)C1)c1ccccn1
- survivor count [14]: 10 of 10
- survivor count [5]: 9 of 10

Compound: COc1c(C=O)c2c(c(OC)c1OC)-c1ccc(OC)c(=O)cc1[C@@H](NC(C)=O)CC2
- survivor count [14]: 6 of 10
- survivor count [5]: 5 of 10

Compound: O=c1[nH]cccc1O
- survivor count (dose: 128.0 mg/kg/injection, schedule: Q01DX009 (ip), vehicle: saline with Tween-80): 10 of 10
- survivor count (dose: 512.0 mg/kg/injection, schedule: Q01DX009 (ip), vehicle: saline with Tween-80): 6 of 10

Compound: C(C#CCN1CCOCC1)#CCN1CCOCC1
- survivor count [8]: 9 of 10

Compound: CS(=O)(=O)CS(=O)(=O)OCCCl
- T/C [12]: 132 % of control
- T/C [13]: 131 % of control
- T/C [10]: 135 % of control
- survivor count [3]: 10 of 10
- survivor count [4]: 4 of 10

Compound: COc1cccc2c1C(=O)c1c(O)c3c(c(O)c1C2=O)C[C@@](O)(C(=O)CO)C[C@@H]3OC1CC(N)C(O)C(C)O1 (stereo partly drawn)
- T/C (dose: 0.25 mg/kg/injection, schedule: Q01DX009 (ip), vehicle: saline): 91, 97, 101, 102, 104, 116 % of control
- T/C (dose: 0.25 mg/kg/injection, schedule: Q01DX009 (ip), vehicle: water): 129 % of control [9 of 10 alive]
- T/C [15]: 86 [9 of 10 alive], 92, 98, 101 (2×), 104 (2×), 106, 107, 111 (2×), 114 % of control
- survivor count [15]: 10 of 10
- T/C (dose: 1.0 mg/kg/injection, schedule: Q01DX009 (ip), vehicle: saline): 97, 105, 107, 108 [9 of 10 alive], 110 (4×), 112, 116, 119 (2×), 125 % of control
- T/C (dose: 1.0 mg/kg/injection, schedule: Q01DX009 (ip), vehicle: water): 126 % of control
- T/C [16]: 106, 118, 119 [9 of 10 alive], 120 [9 of 10 alive], 125 (2×), 129 (3×), 132, 133, 143 % of control
- survivor count [16]: 10 of 10
- survivor count (dose: 4.0 mg/kg/injection, schedule: Q01DX009 (ip), vehicle: saline): 9 of 10 and 10 of 10
- survivor count (dose: 4.0 mg/kg/injection, schedule: Q01DX009 (ip), vehicle: water): 10 of 10
- survivor count (dose: 8.0 mg/kg/injection, schedule: Q01DX009 (ip), vehicle: saline): 8 of 10, 9 of 10, 10 of 10
- survivor count (dose: 8.0 mg/kg/injection, schedule: Q01DX009 (ip), vehicle: water): 9 of 10

Compound: O=C(Nc1ccccc1C(=O)O)c1cc([N+](=O)[O-])cc([N+](=O)[O-])c1
- survivor count [11]: 8 of 10
